One molecule from publication PMC4014447 can be followed below.

No constants are given. Whether binding was seen depends on the method and setting. In cells and extracts the contact can be indirect. Binding can be weak; no strength is given.

This experiment deals with Myc-tagged wild-type LMX1B (long form, -L) (mouse). The experiment in a line: co-IP; HEK 293T cells transfected with pcDNA-LDB1 along with WT-Myc and ICST-FLAG as indicated; lysate immunoprecipitated with anti-c-Myc agarose; Western blot with anti-Myc, anti-FLAG and anti-LDB1.

B1: LIM domain binding protein 1 (LDB1) (protein, UniProt P70662 1-411)
chain: MSVGCACPGCSSKSFKLYSPKEPPNGNAFPPFHPGTMLDRDVGPTPMYPPTYLEPGIGRHTPYGNQTDYRIFELNKRLQNWTEECDNLWWDAFTTEFFEDDAMLTITFCLEDGPKRYTIGRTLIPRYFRSIFEGGATELYYVLKHPKEAFHSNFVSLDCDQGSMVTQHGKPMFTQVCVEGRLYLEFMFDDMMRIKTWHFSIRQHRELIPRSILAMHAQDPQMLDQLSKNITRCGLSNSTLNYLRLCVILEPMQELMSRHKTYSLSPRDCLKTCLFQKWQRMVAPPAEPARQQPSKRRKRKMSGGSTMSSGGGNTNNSNSKKKSPASTFALSSQVPDVMVVGEPTLMGGEFGDEDERLITRLENTQFDAANGIDDEDSFNNSPALGANSPWNSKPPSSQESKSENPTSQASQ
For the molecule B1, the binding result is given as “binds”.
